Experimental data: patent US20040098763A1
No constants are given. Whether binding was seen depends on the method and setting. Some binding calls cover weakened binding; strength is not graded here. Sequences can lack the tags named with a protein.

Sequences of proteins named here, by UniProt entry; tags and fusion partners are left off. A change or cut given only in a name is not applied to a line headed by its entry.
UniProt P04386: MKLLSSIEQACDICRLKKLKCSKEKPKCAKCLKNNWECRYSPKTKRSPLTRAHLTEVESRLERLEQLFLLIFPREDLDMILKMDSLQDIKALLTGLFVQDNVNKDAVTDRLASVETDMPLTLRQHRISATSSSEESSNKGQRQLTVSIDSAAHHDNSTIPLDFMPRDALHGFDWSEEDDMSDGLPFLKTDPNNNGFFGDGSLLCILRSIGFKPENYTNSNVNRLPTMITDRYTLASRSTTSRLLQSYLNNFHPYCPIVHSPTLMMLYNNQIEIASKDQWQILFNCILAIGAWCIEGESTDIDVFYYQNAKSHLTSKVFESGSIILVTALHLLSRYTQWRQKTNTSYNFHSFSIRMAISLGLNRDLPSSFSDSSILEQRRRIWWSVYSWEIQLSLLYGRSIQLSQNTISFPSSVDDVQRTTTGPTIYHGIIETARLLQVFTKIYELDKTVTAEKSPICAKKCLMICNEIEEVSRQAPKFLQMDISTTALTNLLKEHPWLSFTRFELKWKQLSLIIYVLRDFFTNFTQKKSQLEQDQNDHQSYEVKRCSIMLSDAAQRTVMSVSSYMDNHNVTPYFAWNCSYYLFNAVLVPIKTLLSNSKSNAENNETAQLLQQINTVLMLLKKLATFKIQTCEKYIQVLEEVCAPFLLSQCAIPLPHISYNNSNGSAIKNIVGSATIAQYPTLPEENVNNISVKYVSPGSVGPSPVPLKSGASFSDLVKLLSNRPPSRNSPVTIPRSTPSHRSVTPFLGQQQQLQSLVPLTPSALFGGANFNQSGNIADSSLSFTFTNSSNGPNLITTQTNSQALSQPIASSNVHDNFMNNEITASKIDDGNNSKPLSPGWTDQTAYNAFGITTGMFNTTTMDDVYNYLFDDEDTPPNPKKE
UniProt P42752: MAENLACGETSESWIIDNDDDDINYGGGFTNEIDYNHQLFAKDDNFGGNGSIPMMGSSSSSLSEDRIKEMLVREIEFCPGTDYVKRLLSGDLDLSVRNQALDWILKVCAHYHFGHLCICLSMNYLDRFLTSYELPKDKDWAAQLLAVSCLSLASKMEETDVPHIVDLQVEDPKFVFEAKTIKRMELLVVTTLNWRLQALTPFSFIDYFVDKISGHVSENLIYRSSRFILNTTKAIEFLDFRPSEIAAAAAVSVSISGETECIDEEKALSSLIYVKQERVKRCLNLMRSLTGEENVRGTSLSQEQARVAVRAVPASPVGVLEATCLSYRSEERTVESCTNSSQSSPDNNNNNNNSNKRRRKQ
UniProt P42751: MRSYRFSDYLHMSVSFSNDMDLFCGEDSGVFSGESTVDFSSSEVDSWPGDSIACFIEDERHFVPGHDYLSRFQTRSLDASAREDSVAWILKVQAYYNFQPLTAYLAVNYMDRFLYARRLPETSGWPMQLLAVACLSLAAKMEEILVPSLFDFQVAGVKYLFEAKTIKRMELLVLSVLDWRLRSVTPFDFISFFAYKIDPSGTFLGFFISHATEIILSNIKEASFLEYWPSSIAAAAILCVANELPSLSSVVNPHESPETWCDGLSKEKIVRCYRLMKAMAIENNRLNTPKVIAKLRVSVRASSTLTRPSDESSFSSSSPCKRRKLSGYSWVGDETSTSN
UniProt P42753: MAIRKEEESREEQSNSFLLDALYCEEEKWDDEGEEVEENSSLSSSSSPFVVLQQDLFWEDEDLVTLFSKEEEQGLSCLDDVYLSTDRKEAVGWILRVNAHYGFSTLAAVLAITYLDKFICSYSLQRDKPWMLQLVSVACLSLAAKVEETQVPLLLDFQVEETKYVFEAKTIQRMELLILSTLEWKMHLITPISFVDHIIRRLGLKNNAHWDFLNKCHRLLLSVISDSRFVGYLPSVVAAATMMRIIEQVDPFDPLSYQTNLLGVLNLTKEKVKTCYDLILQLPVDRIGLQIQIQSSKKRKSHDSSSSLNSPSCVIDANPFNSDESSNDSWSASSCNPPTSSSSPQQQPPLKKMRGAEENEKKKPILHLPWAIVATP

Key:
[1] = biological target: T1, CycD2 (Arath; CycD2; 1) in DB-vector (Arabidopsis) (UniProt P04386+P42752); experiment: yeast two-hybrid
[2] = biological target: T2, CycD1 (Arath; CycD1; 1) in DB-vector (A. thaliana) (UniProt P04386+P42751); experiment: yeast two-hybrid
[3] = biological target: T3, CycD3 (Arath; CycD3; 1) in DB-vector (Arabidopsis) (UniProt P04386+P42753); experiment: yeast two-hybrid
[4] = biological target: T1, CycD2 (Arath; CycD2; 1) in DB-vector (Arabidopsis); experiment: yeast two-hybrid (MaV203), X-Gal filter assay for β-galactosidase; AD construct x BD construct
[5] = biological target: T2, CycD1 (Arath; CycD1; 1) in DB-vector (A. thaliana); experiment: as above
[6] = biological target: T3, CycD3 (Arath; CycD3; 1) in DB-vector (Arabidopsis); experiment: as above

Measured: binding

B1: ICDK of Chenopodium rubrum (AD construct) (protein, not shown: large carriers)
chain: MAAAATPTSSPAKKIKKVSKSSYNIPQLRSRRKNLSAPENFAELETTPLEVAAVVEEEEVANCSSSEVITTARSDFPPSCCSSNYDQLSSSEPEVVKDDDGLGNRTADPEVESGEASSKQKESHRTEAREATKLDDQDYPATKSTVQIKMPSDSEIEEFFAVAEKDLQKRFSEKYNFDIVKDVPLKGRYDWVPINP
binds: all assays above
